# Article PMC12548458
# By UniProt entry, the sequences of proteins in these tests, tags left out.
# UniProt Q06187: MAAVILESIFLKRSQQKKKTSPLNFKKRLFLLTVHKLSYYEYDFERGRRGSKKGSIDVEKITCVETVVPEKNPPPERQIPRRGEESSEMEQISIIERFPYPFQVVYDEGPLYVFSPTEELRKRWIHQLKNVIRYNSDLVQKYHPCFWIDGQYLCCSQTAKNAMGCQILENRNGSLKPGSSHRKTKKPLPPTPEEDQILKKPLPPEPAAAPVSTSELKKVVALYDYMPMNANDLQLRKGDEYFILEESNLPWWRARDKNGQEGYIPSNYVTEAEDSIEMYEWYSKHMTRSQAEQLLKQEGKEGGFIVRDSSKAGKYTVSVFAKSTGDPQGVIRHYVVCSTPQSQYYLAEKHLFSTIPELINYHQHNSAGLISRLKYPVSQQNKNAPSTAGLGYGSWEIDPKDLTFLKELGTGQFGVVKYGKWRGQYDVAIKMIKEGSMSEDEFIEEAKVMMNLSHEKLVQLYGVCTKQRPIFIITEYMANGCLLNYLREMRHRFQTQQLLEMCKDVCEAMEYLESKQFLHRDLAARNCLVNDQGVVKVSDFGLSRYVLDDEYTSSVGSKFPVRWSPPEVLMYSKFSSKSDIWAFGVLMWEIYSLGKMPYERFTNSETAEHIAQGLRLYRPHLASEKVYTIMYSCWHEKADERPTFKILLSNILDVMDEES
# UniProt Q9UJV9: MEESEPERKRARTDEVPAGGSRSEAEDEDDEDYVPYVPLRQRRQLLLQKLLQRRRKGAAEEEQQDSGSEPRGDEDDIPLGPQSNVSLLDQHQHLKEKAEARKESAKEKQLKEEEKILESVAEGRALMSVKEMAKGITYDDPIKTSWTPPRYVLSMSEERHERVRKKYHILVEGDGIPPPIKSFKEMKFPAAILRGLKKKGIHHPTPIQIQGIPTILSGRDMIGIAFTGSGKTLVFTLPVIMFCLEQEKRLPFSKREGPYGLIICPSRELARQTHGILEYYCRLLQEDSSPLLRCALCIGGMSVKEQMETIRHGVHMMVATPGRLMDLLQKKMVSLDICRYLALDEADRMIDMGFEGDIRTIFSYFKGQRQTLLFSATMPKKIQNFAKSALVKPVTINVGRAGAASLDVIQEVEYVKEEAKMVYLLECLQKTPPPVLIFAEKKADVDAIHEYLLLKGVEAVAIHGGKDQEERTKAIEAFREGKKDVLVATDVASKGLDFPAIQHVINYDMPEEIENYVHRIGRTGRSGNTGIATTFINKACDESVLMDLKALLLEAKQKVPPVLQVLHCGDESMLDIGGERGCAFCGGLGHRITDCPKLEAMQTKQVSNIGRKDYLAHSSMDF
# UniProt Q86WV6: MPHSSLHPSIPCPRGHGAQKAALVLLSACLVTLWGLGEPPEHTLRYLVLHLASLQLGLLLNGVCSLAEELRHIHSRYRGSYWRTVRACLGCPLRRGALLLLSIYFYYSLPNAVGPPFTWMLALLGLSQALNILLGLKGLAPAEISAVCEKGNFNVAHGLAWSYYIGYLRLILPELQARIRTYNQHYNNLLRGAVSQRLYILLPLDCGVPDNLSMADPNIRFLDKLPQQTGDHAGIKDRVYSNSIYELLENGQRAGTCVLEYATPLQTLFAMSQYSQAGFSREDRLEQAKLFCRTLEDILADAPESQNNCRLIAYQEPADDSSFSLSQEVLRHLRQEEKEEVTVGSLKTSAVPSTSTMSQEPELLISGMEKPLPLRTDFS
# No constants are given. Whether binding was seen depends on the method and setting. In cells and extracts the contact can be indirect. Some results given as binding are weak or reduced against the parent protein; the word gives no strength.
# Assays:
# [1] = biological target: Bruton's tyrosine kinase (BTK) (human (endogenous in NuFF-1)) (UniProt Q06187); test: co-IP; lysates of mock- or TB40/EmCherry (WT)-infected NuFF-1 fibroblasts (MOI = 0.5 TCID50/cell); IP with anti-BTK, anti-DDX41 or isotype IgG on protein G beads overnight at 4°C; IP buffer 25 mM Tris pH 7.4, 1 mM MgCl2, 2 mM EDTA, 1.0% Triton-X 100, 150 mM NaCl; four washes; western blot for STING, pp65 or pp71
# [2] = biological target: DEAD-box helicase 41 (DDX41) (human (endogenous in NuFF-1)) (UniProt Q9UJV9); test: as above
substance,measurement,setting,value
stimulator of interferon genes (STING) (from UniProt Q86WV6 1-379),binding,[1],binds
same,binding,[2],binds
